Assay [1] has as its target human ROR2 extracellular end, His-tagged (human). The experiment in a line: western blot, 5 µg/ml antibody.
In assay [2] the target is ROR2 extracellular protein. The assay is described as follows: ELISA, plate coated with ROR2 extracellular protein.

Results are given in words; binding and its absence hold for the method and conditions named. Binding calls can cover weak binding; strength is not graded here.

In patent US20210388086A1 one finds binding data, which are given here for three molecules.

B1: A12 chimeric antibody (antibody, human IgG1, kappa, V domains shown)
VH: QVQLQQSGPELVKPGASVRMSCKAAGYTITSYLMHWVKQRPGQDLEWIGYINPYNDGTKYNEKFKDKATLTSDKSSSTAYMELSSLTSEDSAVYYCARSDVYYGVRFAYWGQGTLVTVSA
VL: DIVLTQSPAIMSASPGEKVTMTCSASSSVSYMHWYQQKSGTSPKRWIYDTSKLASGVPARFSGSGSGTSYSLTISSMEAEDAAIYYCQQWSSNPPTFGAGTKLELKR
In the case of B1, the binding result in assay [1] and in assay [2] was “binds” in each case.

B2: B30 chimeric antibody (antibody, human IgG1, kappa, V domains shown)
VH: QVQLQQSGPELVKPGASVRMSCKAAGYTFTSYLIHWVKQRPGQDLEWIGYINPYNDGTKYNEKFKDKATLTSDKSSSTAYMELSSLTSEDSAVYYCARSDVYYGVRFAYWGQGTLVTVSA
VL: DIVLTQSPVIMSASPGEKVTMTCSASSSISYMYWYQQKPGSSPRLLIYDTSILASGVPVRFSGSGSGTSYSLTISRMEAEDAATYYCQQWSSYPFTFGSGTKLEIKR
Take B2: the binding result in assay [1] and in assay [2] was “binds” throughout.

B3: B22 chimeric antibody (antibody, human IgG1, kappa, V domains shown)
VH: QVQLQQPGAALVKPGASVKLSCKASGYTFTNYWIQWMKQRPGQGLEWIGEINPSNGRTDYNEKFKNRATLTVDNSSTTAYMQLSSLTSEDSAVYYCANYRPGYWGQGTSVTVSS
VL: DIVMTQSQKFMSTSVGDRVSVTCKASQNVGTNVAWFQQKPGQSPKPLIYLASYRYSGVPDRFTGSGSGTDFTLTISNVQSEDLAEYFCQQYNSYPLTFGGGTNLEIKR
Consider B3, for which the binding entry in assay [1] and in assay [2] was “binds” in each case.
